The term IC50 denotes the midpoint of a concentration-inhibition curve.

Results on one compound are retold here after publication PMC5431371, “Crystal structure-based discovery of a novel synthesized PARP1 inhibitor (OL-1) with apoptosis-inducing mechanisms in triple-negative breast cancer” (Scientific Reports, 2016).

The assay relates to MDA-MB-436 cells. Kind of assay: Cell viability assay (MTT). Type of assay: cell-based. The following applies: Homo sapiens; MDA-MB-436 cells (BRAC1 mutant breast cancer); mean ± SD, at least three independent experiments; read-out: Anti-cell viability (IC50, μM) MDA-MB-436. The method, then:
Breast cancer cells including MCF-7, MDA-MB-231, MDA-MB-436 and MDA-MB-468 cells were obtained from American Type Culture Collection (ATCC, Manassas, VA, USA). […] MDA-MB-231, MDA-MB-436 and MDA-MB-468 cells were cultured in humidified cell incubator with atmosphere at 37 °C while MCF-7 cells was cultured with 5% CO2 at 37 °C. 5 × 10^3 cells were seeded into each well in 96-well microplates and cultured for 24 h. Then the cells were exposed to different concentrations of OL-1 for 24 h. After drug treatment, the cell viabilities were detected by MTT assay.

Regarding `CN(C)CCC=C1c2ccccc2COc2ccccc21` [Compound 19b], the 50% inhibitory concentration (IC50) amounted to 4.14 ± 1.17 µM.
